The record followed here is the supplement of paper PMC10849652.

Sequences of proteins named here, by UniProt entry; tags and fusion partners are left off. A change or cut given only in a name is not applied to a line headed by its entry.
UniProt P61009: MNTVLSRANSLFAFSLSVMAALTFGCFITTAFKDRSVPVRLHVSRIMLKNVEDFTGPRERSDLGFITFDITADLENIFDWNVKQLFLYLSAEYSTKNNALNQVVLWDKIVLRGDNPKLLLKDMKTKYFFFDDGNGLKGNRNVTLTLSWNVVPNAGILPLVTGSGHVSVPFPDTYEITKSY
UniProt Q9NYA1, whole entry, looked up: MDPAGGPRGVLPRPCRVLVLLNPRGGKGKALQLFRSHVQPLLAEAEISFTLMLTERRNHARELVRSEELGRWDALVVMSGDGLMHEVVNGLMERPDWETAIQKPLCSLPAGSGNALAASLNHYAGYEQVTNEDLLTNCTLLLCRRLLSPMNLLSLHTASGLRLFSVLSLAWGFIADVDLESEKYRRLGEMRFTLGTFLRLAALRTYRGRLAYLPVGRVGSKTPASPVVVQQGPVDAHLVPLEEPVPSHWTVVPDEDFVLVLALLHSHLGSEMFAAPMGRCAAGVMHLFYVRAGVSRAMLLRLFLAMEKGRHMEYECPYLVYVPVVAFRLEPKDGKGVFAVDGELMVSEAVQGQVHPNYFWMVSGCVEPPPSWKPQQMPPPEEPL
UniProt Q8WW59: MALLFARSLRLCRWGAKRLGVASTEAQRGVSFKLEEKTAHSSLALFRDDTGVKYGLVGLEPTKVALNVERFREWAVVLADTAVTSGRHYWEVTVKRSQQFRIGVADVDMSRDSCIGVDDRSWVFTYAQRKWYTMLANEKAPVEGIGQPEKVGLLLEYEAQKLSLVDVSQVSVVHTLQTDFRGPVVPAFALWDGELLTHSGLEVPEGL
UniProt Q9GZT4: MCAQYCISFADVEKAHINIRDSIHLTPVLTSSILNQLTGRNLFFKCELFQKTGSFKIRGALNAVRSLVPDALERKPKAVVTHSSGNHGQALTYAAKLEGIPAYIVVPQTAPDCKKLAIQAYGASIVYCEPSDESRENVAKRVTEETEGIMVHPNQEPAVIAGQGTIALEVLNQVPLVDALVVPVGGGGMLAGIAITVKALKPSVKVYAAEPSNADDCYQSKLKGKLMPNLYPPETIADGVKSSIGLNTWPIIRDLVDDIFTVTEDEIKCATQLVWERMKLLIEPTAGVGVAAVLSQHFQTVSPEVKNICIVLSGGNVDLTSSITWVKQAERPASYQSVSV
UniProt P43307: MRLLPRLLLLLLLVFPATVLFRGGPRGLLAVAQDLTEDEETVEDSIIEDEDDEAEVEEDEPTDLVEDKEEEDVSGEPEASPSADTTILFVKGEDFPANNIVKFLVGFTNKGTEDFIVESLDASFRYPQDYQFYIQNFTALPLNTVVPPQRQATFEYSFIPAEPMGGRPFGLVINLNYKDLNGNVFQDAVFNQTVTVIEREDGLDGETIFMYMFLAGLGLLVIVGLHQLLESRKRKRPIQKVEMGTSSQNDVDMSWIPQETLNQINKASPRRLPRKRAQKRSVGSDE
UniProt Q5W111: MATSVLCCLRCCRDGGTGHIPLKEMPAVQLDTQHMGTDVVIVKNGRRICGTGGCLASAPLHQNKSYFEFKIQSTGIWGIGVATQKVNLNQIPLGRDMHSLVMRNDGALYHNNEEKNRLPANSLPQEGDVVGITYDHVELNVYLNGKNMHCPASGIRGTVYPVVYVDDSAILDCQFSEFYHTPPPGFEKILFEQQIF
UniProt O95793: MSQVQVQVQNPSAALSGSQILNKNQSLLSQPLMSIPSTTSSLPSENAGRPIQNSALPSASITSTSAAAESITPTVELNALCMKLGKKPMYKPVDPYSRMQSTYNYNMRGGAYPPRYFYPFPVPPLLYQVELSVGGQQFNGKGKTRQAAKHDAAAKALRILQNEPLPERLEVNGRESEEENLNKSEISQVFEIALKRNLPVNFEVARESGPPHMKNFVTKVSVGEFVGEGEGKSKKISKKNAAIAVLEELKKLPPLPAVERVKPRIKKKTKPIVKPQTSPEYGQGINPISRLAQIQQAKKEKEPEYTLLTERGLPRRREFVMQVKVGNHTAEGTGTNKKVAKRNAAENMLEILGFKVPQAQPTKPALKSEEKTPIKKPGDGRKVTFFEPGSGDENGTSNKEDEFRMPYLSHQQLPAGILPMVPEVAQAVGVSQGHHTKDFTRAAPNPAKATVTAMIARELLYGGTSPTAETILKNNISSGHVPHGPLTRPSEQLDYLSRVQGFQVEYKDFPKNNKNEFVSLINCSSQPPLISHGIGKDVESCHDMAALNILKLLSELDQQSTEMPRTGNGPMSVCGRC
UniProt P16150: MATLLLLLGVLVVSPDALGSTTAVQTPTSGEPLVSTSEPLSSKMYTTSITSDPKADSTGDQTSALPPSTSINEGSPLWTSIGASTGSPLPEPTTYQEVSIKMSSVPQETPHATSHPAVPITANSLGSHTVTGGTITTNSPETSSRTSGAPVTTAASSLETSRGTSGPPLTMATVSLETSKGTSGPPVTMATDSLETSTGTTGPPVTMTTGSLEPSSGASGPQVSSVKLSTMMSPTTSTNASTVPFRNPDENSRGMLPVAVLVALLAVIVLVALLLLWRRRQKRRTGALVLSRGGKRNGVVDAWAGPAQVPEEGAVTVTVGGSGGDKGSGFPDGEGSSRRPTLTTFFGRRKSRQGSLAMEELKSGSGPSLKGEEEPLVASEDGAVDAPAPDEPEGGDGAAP
UniProt Q9Y657, whole entry, looked up: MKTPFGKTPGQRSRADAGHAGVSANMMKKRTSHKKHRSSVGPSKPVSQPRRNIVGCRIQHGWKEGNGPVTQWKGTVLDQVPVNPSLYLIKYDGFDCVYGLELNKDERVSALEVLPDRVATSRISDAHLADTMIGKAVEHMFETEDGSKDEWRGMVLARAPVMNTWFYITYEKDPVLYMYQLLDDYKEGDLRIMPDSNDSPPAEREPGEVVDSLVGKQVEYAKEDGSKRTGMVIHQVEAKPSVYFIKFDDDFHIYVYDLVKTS
UniProt Q15831: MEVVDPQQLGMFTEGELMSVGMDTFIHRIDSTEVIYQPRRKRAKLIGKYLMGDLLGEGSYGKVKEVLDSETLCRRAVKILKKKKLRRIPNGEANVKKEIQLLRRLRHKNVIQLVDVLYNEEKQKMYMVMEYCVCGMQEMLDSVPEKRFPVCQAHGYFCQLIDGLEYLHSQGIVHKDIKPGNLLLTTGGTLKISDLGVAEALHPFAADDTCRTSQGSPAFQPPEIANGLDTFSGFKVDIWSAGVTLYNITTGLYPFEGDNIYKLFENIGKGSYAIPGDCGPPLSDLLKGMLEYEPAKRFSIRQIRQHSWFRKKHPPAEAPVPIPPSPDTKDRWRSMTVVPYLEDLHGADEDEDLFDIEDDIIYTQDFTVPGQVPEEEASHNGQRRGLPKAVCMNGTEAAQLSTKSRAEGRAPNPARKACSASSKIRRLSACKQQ
UniProt Q9HD15: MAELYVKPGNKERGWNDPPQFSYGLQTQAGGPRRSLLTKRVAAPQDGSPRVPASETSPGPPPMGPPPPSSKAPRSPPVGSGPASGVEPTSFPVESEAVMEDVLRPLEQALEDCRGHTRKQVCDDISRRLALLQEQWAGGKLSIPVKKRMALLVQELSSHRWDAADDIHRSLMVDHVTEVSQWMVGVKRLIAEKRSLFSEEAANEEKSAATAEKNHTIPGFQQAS
UniProt Q92783: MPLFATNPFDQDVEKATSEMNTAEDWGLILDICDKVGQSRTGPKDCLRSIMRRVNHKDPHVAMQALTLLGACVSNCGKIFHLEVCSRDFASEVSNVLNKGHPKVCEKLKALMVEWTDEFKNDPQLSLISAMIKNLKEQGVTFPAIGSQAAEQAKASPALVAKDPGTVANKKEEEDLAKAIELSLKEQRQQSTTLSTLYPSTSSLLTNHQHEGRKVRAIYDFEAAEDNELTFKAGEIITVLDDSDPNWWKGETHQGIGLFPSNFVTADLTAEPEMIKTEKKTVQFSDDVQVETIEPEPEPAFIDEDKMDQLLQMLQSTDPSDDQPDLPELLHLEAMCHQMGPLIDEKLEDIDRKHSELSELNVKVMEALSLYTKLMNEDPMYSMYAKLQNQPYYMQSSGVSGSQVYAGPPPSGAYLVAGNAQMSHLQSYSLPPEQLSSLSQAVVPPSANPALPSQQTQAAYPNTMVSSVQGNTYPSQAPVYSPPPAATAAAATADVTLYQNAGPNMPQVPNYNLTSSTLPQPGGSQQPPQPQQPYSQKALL
UniProt P09486: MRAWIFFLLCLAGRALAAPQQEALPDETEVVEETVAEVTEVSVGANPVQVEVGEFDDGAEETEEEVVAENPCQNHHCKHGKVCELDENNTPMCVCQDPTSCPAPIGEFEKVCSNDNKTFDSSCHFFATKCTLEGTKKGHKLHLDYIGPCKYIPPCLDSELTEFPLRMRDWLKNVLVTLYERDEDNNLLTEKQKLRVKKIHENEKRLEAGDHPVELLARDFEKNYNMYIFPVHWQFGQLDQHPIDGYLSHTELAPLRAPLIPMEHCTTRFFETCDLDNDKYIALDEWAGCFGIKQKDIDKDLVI
UniProt Q04837: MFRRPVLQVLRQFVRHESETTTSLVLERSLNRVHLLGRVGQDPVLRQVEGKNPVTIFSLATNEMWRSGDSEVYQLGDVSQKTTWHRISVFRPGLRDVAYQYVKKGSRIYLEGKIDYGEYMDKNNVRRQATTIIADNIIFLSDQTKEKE
UniProt P37108: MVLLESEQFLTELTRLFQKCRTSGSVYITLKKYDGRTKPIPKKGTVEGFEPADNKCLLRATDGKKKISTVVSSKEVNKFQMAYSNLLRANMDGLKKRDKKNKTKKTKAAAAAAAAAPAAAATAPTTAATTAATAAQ
UniProt O95630, whole entry, looked up: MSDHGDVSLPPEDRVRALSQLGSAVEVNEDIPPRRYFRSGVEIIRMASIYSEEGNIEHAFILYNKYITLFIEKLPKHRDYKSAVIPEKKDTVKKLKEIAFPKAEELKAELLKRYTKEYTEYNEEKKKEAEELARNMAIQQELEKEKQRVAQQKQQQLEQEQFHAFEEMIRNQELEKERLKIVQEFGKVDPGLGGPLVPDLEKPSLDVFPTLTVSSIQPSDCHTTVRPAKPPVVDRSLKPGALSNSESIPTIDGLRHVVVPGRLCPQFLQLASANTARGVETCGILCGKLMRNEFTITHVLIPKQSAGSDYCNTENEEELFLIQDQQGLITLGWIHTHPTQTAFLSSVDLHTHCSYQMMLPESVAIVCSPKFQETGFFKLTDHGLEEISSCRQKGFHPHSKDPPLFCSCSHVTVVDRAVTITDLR
UniProt Q8WVM7: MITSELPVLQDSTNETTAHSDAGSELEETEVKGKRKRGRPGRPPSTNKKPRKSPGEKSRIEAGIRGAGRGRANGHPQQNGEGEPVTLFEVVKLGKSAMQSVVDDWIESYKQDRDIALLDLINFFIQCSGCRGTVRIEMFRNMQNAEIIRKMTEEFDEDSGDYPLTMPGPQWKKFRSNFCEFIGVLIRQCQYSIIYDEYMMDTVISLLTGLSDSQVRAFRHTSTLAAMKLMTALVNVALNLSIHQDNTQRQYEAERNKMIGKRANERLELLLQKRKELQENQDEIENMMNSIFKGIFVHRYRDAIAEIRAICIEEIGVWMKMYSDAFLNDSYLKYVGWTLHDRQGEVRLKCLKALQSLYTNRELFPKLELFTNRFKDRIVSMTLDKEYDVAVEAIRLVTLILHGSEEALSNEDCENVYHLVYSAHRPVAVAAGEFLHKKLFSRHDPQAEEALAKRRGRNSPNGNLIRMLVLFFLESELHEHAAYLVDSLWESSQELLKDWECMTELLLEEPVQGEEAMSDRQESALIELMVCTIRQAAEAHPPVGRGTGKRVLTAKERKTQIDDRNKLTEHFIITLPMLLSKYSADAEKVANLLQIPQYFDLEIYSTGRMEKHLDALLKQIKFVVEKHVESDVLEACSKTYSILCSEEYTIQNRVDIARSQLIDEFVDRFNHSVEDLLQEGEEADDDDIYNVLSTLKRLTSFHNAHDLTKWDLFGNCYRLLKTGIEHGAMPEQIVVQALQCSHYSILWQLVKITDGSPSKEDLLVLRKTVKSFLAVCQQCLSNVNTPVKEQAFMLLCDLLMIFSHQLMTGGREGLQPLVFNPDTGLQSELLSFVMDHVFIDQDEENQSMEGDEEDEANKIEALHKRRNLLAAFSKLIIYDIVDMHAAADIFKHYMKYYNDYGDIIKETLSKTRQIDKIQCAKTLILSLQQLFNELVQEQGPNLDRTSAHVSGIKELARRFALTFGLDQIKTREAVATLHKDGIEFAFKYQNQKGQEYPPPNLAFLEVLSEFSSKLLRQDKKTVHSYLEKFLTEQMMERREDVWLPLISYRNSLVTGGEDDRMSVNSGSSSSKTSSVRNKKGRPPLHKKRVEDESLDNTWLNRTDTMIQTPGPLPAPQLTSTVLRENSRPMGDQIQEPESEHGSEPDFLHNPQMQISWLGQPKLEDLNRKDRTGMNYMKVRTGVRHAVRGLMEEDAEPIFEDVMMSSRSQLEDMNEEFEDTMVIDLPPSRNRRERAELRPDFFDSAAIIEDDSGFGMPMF
UniProt Q13242, whole entry, looked up: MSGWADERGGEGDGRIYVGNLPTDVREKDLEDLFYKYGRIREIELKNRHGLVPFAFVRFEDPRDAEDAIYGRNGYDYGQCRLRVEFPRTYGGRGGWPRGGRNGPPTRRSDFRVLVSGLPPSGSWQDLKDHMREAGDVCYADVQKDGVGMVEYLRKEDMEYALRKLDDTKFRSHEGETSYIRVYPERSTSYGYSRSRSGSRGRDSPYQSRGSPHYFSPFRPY

Some of the results follow.

Compound in the assay: C1COCCN1CCN2C3=CC=CC=C3N=C2NC(=O)C4=CC(=CC=C4)[N+](=O)[O-] [IRAK-1-4 Inhibitor I]
Put plainly: log2 fold change, soluble protein after heating vs DMSO (PISA); higher = thermal stabilisation; K562 cells, 10 uM, 30 min; active = over 0.2 and 3.5 SD of the protein, either way, in both replicates (recomputed). In outline: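 Soluble protein was quantified by TMTpro 16plex LC-MS/MS after channel sums were equalised. It was obtained as the supernatant after 21,000xg for 90 min from pooled aliquots of K562 cells (2×10^6 cells/mL, 10 μM compound, 30 min) heated for 3 min across 48°C-58°C and extracted in PBS with 0.5% NP-40 at 4°C. Thermal stability values are relative to control samples and come from duplicates. They are given as log2 fold changes.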
For the target SRSF5 (UniProt Q13243), the log2 fold change is inactive: -0.171. Consider SPRY4 (UniProt Q9C004), for which the log2 fold change was inactive: 0.036. With SRRT (UniProt Q9BXP5), the log2 fold change was inactive: -0.135.

As for SPCS3 (UniProt P61009), the log2 fold change was inactive: 0.052.

SPHK1 isoform 2 (UniProt Q9NYA1): the log2 fold change was inactive: 0.054. Turning to SPRYD4 (UniProt Q8WW59), the log2 fold change is inactive: 0.028. As for ST6GALNAC1 (UniProt Q9NSC7), the figure is inactive: -0.112. Then SRR (UniProt Q9GZT4), with inactive: 0.035; and SPTAN1 isoform 2 (UniProt Q13813), with inactive: -0.025. Then SSR1 (UniProt P43307), with inactive: 0.08; and SPRYD7 (UniProt Q5W111), with inactive: 0.057. As to SPCS1, A0A5F9YFS9, the log2 fold change is inactive: 0.049. In the case of STAU1 (UniProt O95793), the log2 fold change was inactive: -0.168. Then SPN (UniProt P16150), with inactive: 0.113. Take SPIN1 (UniProt Q9Y657): the log2 fold change is inactive: -0.025. Regarding SRM (UniProt P19623), the log2 fold change was inactive: 0.063.

As for SQLE (UniProt Q14534), the log2 fold change is inactive: 0.012.

With STK11 (UniProt Q15831), the log2 fold change was inactive: 0.071. As for SPTA1 (UniProt P02549), the figure is inactive: -0.103. Take SRA1 (UniProt Q9HD15): the log2 fold change was inactive: 0.016. Take STAM (UniProt Q92783): the log2 fold change was inactive: -0.017. As for STAG2 (UniProt Q8N3U4), the figure is inactive: -0.021; as for STIP1 isoform 2 (UniProt P31948), inactive: 0.018. As for STAT1 (UniProt P42224), the figure is inactive: -0.068. As for SPARC (UniProt P09486), the figure is inactive: -0.01; as for SRPK1 (UniProt Q96SB4), inactive: -0.118. As for SSBP1 (UniProt Q04837), the log2 fold change was inactive: 0. SRP14 (UniProt P37108): the log2 fold change was inactive: -0.128. For the target ST7 (UniProt Q9NRC1), the log2 fold change was inactive: -0.009. As to STAMBP (UniProt O95630), the log2 fold change was inactive: -0.051. As to SPECC1L (UniProt Q69YQ0), the log2 fold change is inactive: 0.049.

With SPTB isoform 2 (UniProt P11277), the log2 fold change is inactive: -0.026. Consider SPTBN2 (UniProt O15020), for which the log2 fold change is inactive: -0.052.

On to SRP54 (UniProt P61011), for which the log2 fold change is inactive: 0.005. Then SPC25 (UniProt Q9HBM1), with inactive: -0.016; and SPATA5L1 (UniProt Q9BVQ7), with inactive: 0.021. For STAG1 (UniProt Q8WVM7), the log2 fold change was inactive: -0.035. As for SRSF9 (UniProt Q13242), the figure is inactive: -0.094.
